From patent publication US20160271513A1, “DRYING TECHNIQUES FOR MICROFLUIDIC AND OTHER SYSTEMS” (PRESIDENT AND FELLOWS OF HARVARD COLLEGE, priority 2013, published 2016)
“Also recorded” adds a separate entry of the source. For at least one compound, name, drawing or mass did not settle the structure. Some results were stated once for a whole list of compounds, not compound by compound.

Assays:
Format in all cases: physicochemical
[1] = Structure and storage stability of spray-dried drug nanoparticles by X-ray diffraction; settings: for time without crystallization: stored at room temperature
Description: While the characteristic size below which particles were entirely amorphous is system-specific, the suppression of nucleation in small droplets relies on a generally applicable physical principle. […] To test this expectation, the structure of spray-dried clotrimazole, estradiol, and danazol was examined using X-ray diffraction (XRD). To keep the nucleation time the same, they were dissolved at 10% of their saturation concentration. In agreement with the above, these spray-dried drug nanoparticles were amorphous.
Production of amorphous drugs may require the addition of excipients. However, despite the presence of excipients, these drugs tend to crystallize with time leading to a change in their dissolution kinetics; this prevents their application in industry. […] These drugs all had glass transition temperatures, Tg, above room temperature; they were therefore glasses at room temperature.
XRD. X-ray diffraction was performed on spray-dried nanoparticles collected onto a one-side polished (100) Si wafer for 11 h. Measurements were acquired on a XDS2000 instrument (Scintac Inc.) using a Cu Kα (K alpha) source with a wavelength λ=0.154056 nm. The angle 2θ was varied between 2 and 70° at a rate of 1°/min.
It was expected to crystallize over time if stored at room temperature even if it is initially fully amorphous.
To test if the nebulator also allowed production of amorphous nanoparticles from materials with a Tg […] room temperature, which would be a glass at room temperature, clotrimazole, estradiol, and danazol, all poorly water soluble drugs with Tgs above 20° C., were spry dried. The size of the spray dried nanoparticles was determined by the initial solute concentration and the initial drop size. To ensure similar sizes of the spray dried nanoparticles, the initial solute concentration was fixed to 5 mg/ml. […] Thus, the nebulator allowed formulation of poorly water soluble drugs as amorphous nanoparticles.
To ease the handling drugs, fenofibrate was co-spray dried with different types of excipients. […] Four different types of Pluronics were compared: F68 and F127 are solids at room temperature and Pluronics P84 and P104 are pastes at room temperature.
By analogy to Pluronics, drugs spray dried from solutions containing equal weights of drugs and excipients were crystalline. By contrast, increasing the weight fraction of PVP five-fold results in XRD-amorphous danazol nanoparticles, in agreement to danazol nanoparticles formulated using the microfluidic spray drier.
To maintain the stability of spray dried amorphous nanoparticles and facilitate their handling by embedding them in an excipient matrix, PVP was deposited on a Si-wafer and subsequently drugs were spray dried into the PVP matrix. […] However, because excipients were not required to make the drug amorphous but rather to ease their handling, this procedure is generally applicable to the formulation of many different types of drugs, by contrast to the solid dispersions where the appropriate excipients must be selected for each system individually. Thus, the nebulator used in this example allowed the formulation of amorphous drug nanoparticles that optionally could be sprayed into an excipient matrix to facilitate their handling.

[2] = Saturation concentration of crystalline fenofibrate in ethanol
[3] = Crystal growth in seeded undercooled fenofibrate, time-lapse confocal micrographs
[4] = spray-dried without excipients, stored under ambient conditions

For `Clc1ccccc1C(c1ccccc1)(c1ccccc1)n1ccnc1` [clotrimazole], the time without crystallization ([1]; spray-dried without excipients) was “at least 2 months”.
In the case of `C#C[C@]1(O)CC[C@H]2[C@@H]3CCC4=Cc5oncc5C[C@]4(C)[C@H]3CC[C@@]21C` [danazol], the time without crystallization ([1]; spray-dried without excipients) was “at least 2 months”.
In the case of `C[C@]12CC[C@@H]3c4ccc(O)cc4CC[C@H]3[C@@H]1CC[C@@H]2O` [estradiol], the “structure of spray-dried nanoparticles (XRD)” value (from here on “structure”) ([1]; spray-dried from ethanol without excipients, 0.28 MPa) was “amorphous”, the time without crystallization ([1]; spray-dried without excipients) was “at least 2 months” and the crystallization on storage [1, 4] was “did not crystallize if stored under ambient conditions for at least four weeks”.
In the case of `CC(C)OC(=O)C(C)(C)Oc1ccc(C(=O)c2ccc(Cl)cc2)cc1` [fenofibrate], the “cequ, solute concentration in equilibrium with its bulk” value [2] was 0.14 mol/L, the “structure” value ([1]; co-spray dried with PVP, PVP five times the drug) was “still crystalline” and the “structure” value ([1]; co-spray dried with Pluronics F68, F127, P84 or P104, equal weights) was “contain crystalline regions”. For the same molecule, the crystallization on storage ([1]; co-spray dried with Pluronics P104, XRD-amorphous directly after preparation) was “crystallizes within two weeks”, the crystallization on storage ([1]; co-spray dried with equal weight of Pluronics (F68, F127, P84, P104), two weeks under ambient conditions) was “crystallizes within two weeks if stored under ambient conditions” and the “structure” value ([1]; pure drug spray dried onto a PVP matrix) was “XRD-amorphous”. For the same molecule, the “time remained XRD-amorphous” value ([1]; spray-dried without excipients, stored at 65° C.) was “more than 4 weeks”, the crystallization on storage [1, 4] was “crystallizes within a few weeks if stored under ambient conditions; also recorded: stable for at least two months” and the crystal growth rate ([3]; 20° C., extrapolated from Arrhenius-like behavior) was 1.6 mm/h. The “crystallization of undercooled liquid seeded with a fenofibrate crystal” value ([3]; 35° C.) was “rapidly crystallized” and the “crystal growth rate, temperature dependence” value ([3]; 50° C. versus 35° C.) was “more than three times higher at 50 °C than it is at 35 °C”.
